Measured values as given in publication PMC12040169 (PLOS Biology, 2025).
Some of the results follow.

Test system: T1, CTL2-GFP (C. trachomatis L2/434/Bu, GFP-expressing)
T1 construct: L2/434/Bu, GFP-expressing
Set-up: species or system HeLa; Intracellular C. trachomatis growth in HeLa cells, bulk GFP fluorescence relative to DMSO
Conditions: bulk GFP, single well; 28.5 h, 10 µM; inhibitor

Row | SMILES | % of control remaining [%]
1 | O=C1CNC(=S)N1c1cccc(C(F)(F)F)c1 [CBK288398] | 132.86
2 | COCCNC(=O)c1cc2n(n1)C(C(F)(F)F)CC(c1cccs1)N2 (centres unmarked) [CBK307614] | 86.6717
3 | CCN(CC)C(=O)c1ccc(N)cc1C [CBK022686C] | 141.19
4 | COc1ccccc1C1CCC(NCCCC(=O)c2ccc(F)cc2)CC1 (centres unmarked) [CBK015965C] | 168.98
5 | Cc1ccc(C(=O)NCc2ccc(-c3n[nH]cc3C(=O)N(C)c3ccccc3)cc2)cc1 [CBK285600] | 99.497
6 | Cc1cccc(N2C(=O)SC(N(CC(=O)O)c3cccc(C)c3)C2=O)c1 (centres unmarked) [CBK287095] | 106.114
7 | Cc1nn(C)cc1-c1cncn1CCN(C)C1CCCC1 [CBK281780] | 121.92
8 | CCn1nc2c(C)cc3ccc(OC)cc3n2c1=O [CBK283796] | 146.474
9 | Cc1ccc(-c2nc3ccccc3[nH]2)cc1 [CBK085933] | 93.1666
10 | O=C(NCc1cccc2ccccc12)c1ccccc1-n1cccc1 [CBK149585] | 84.2412
11 | COc1ccc(CCc2nc(C)cc(CN(C)C)c2O)cc1OC [CBK278320C] | 112.274
12 | COc1cccc2c(C(C(=O)O)N3CCN(c4ccc(C(F)(F)F)cn4)CC3)c[nH]c12 (centres unmarked) [CBK286857] | 147.152
13 | CN(CCN1CCCCC1)C(=O)CCc1cn(C)c2ccccc12 [CBK281906] | 118.346
14 | O=C(C1CCCC1)N1CC(n2nc(-c3ccccc3)ccc2=O)C1 [CBK284617] | 155.399
15 | COCCNc1nc(-c2ccc([N+](=O)[O-])cc2)nc2ccccc12 [CBK264819] | 101.685
16 | O=C(COc1ccc(Br)cc1)Nc1ccc(Cl)c(-c2nc3ccccc3[nH]2)c1 [CBK263075] | 101.097
17 | Cc1ccc2[nH]c([C@H]3CCN(C(=O)NC(C)C)C3)nc2c1 [CBK289375] | 143.438
18 | CCc1nc2ccc(C(=O)Nc3ccc(Cl)c(Cl)c3)cn2c1N(CC)CCOC [CBK146042] | 146.887
19 | COc1cc(Nc2cncc(-c3cccnc3)n2)cc(OC)c1OC [CBK065201] | 279.38
20 | CN1CCN(C(=O)c2[nH]c3ccccc3c2NS(=O)(=O)/C=C/c2ccccc2)CC1 [CBK050047] | 74.0344
21 | c1ccc(-c2cc(CC3(NCc4c[nH]c5ccccc45)COC3)no2)nc1 [CBK289250] | 106.321
22 | CCOC(=O)N1CCN(C(=O)c2ccc(CS(=O)(=O)c3ccc(C)cc3)cc2)CC1 [CBK268659] | 138.636
23 | CCCC1=NNC(=O)/C1=C\c1cnc[nH]1 [CBK067767] | 97.5712
24 | CCC1CN(Cc2ccccc2)CCN1c1cncc(Cl)n1 (centres unmarked) [CBK003645] | 96.4434
25 | CS(=O)(=O)N1CCCc2cc(-c3csc(N)n3)ccc21 [CBK305859] | 114.502
26 | CC(C)C(=O)N1CCC(n2nc(C3CC3)ccc2=O)CC1 [CBK282351] | 100.246

Row | SMILES | % of control remaining [%]
27 | O=C(CSc1nccn1-c1ccccc1)Nc1ccc(F)cc1 [CBK287399] | 147.997
28 | O=C(CSc1nnc(-c2ccc(Cl)cc2Cl)o1)c1ccc2c(c1)OCCO2 [CBK268839] | 84.08
29 | O=S(=O)(Nc1cccnc1N1CCOCC1)c1cc(C(F)(F)F)cc(C(F)(F)F)c1 [CBK062306] | 109.958
30 | CCn1cc(C(=O)O)c(=O)c2cnc(N3CCN(C(=S)Nc4cc5oc6ccccc6c5cc4OC)CC3)nc21 [CBK267929] | 116.735
31 | COc1ccc(C=C2CCCC3C2=NN(C(=O)CCC(=O)O)C3c2ccc(OC)c(OC)c2)cc1OC (centres unmarked) [CBK296070] | 112.543
32 | O=c1cc(CN2CCc3ccccc3C2)[nH]c(=O)[nH]1 [CBK126401] | 116.61
33 | O=C(CSc1nnc(-c2ccc(Cl)cc2)n1-c1ccccc1)N/N=C/c1ccccn1 [CBK263001] | 117.532
34 | Cc1ccc(Cc2cnc(NC(=O)CN3CCCCC3)s2)cc1Cl [CBK307299] | 113.107
35 | O=c1[nH]c(=O)n([C@H]2C[C@@H](O)[C@@H](CO)O2)cc1O [CBK201317] | 102.818
36 | CC(CC(=O)O)CC(=O)NC1CCN(Cc2ccccc2)CC1 (centres unmarked) [CBK287042] | 117.428
37 | CC1CCN(Cc2ccc(-c3cn(CC(=O)NCc4ccc(Br)cc4)cn3)cc2)CC1 [CBK165969] | 125.991
38 | CCN1CCN(c2ccc(C(=O)OC)cc2NC(=O)c2ccc(C#N)cc2F)CC1 [CBK270171] | 114.693
39 | O=C(CCCN[C@H]1CC[C@](O)(c2ccc(F)cc2)CC1)c1ccc(F)cc1 [CBK023258C] | 121.149
40 | COc1ccc(-c2ccc(=O)n(CCN)n2)cc1 [CBK270130C] | 149.246
41 | O=C(O)C(c1c[nH]c2ccccc12)N1CCOCC1 (centres unmarked) [CBK286739] | 116.535
42 | CCc1nnc(NS(=O)(=O)c2c(C)nn(C)c2Cl)s1 [CBK062180] | 120.323
43 | N#C/C(=C\c1ccc(Oc2ccc(C(F)(F)F)cc2[N+](=O)[O-])cc1)c1nc2ccccc2[nH]1 [CBK263878] | 97.1243
44 | CN(C(=O)c1c[nH]nc1-c1ccc(CNC(=O)Cc2ccc(F)cc2)cc1)c1ccccc1 [CBK285599] | 125.079
45 | CCOc1cc(OCC)cc(C(=O)N2CCC3(CC2)CC(=O)c2cc(CC)ccc2O3)c1 [CBK168009] | 127.062
46 | C=CCOc1nc2c(=O)[nH]c(/N=C/N(C)C)nc2n1C1CC(O)C(CO)O1 (centres unmarked) [CBK201299] | 137.027
47 | O=C(CSc1nnc2ccc3ccccc3n12)Nc1nsc(-c2ccc(Cl)cc2)n1 [CBK266460] | 132.034
48 | Cc1cc(C)nc(N2CCC(CC(=O)NCC(C)N3CCCCCC3)CC2)n1 (centres unmarked) [CBK286029] | 117.86
49 | CC(=O)NC1(CC(=O)N2CC[C@H]3NC(=O)COc4ccccc4C/C=C/C[C@H]3C2)CCCCC1 [CBK292117] | 117.096
50 | Oc1cccc(-c2cncc(NCCCN3CCOCC3)n2)c1 [CBK037858] | 132.049
51 | COc1ccc(-c2n[nH]c(=S)n2CC(=O)Nc2ccc(NC(=O)CC(C)C)cc2)cc1 [CBK295342] | 124.51
52 | COc1cc(C=Cc2nc3cc(Cl)ccc3s2)ccc1OCC(=O)O [CBK297886] | 153.986

Reformatted field by field: part of the list above.
CCn1cc(C(=O)O)c(=O)c2cnc(N3CCN(C(=S)Nc4cc5oc6ccccc6c5cc4OC)CC3)nc21 [CBK267929]
  % of control remaining [%]: 116.735
COc1ccc(C=C2CCCC3C2=NN(C(=O)CCC(=O)O)C3c2ccc(OC)c(OC)c2)cc1OC (centres unmarked) [CBK296070]
  % of control remaining [%]: 112.543
O=c1cc(CN2CCc3ccccc3C2)[nH]c(=O)[nH]1 [CBK126401]
  % of control remaining [%]: 116.61
O=C(CSc1nnc(-c2ccc(Cl)cc2)n1-c1ccccc1)N/N=C/c1ccccn1 [CBK263001]
  % of control remaining [%]: 117.532

Following part:

Row | SMILES | % of control remaining [%]
53 | Cc1ccccc1CCNC(=O)CCc1c(C)nc2nc(N)nn2c1C [CBK304994] | 122.187
54 | c1ccc2c(c1)n(CCN1CCOCC1)c1nc(C34CC5CC(CC(C5)C3)C4)cn21 [CBK278154C] | 124.63
55 | Cc1ccn(-c2ccc(N3CCC(OC4CCCC4)CC3)nn2)n1 [CBK306301] | 133.274
56 | O=c1c(N2CCC(Sc3ccccc3)CC2)nccn1Cc1ccc([N+](=O)[O-])cc1 [CBK153654] | 79.2678
57 | O=C(c1ccc(Cl)cc1)c1ccc(OCC(=O)N2CCN(C(=O)c3ccco3)CC2)cc1 [CBK295658] | 95.904
58 | CCN(Cc1ccccc1)Cc1c(O)ccc2c(=O)c(-c3ccccc3OC)c(C(F)(F)F)oc12 [CBK265839] | 118.83
59 | Cc1ccccc1C(=O)NCC(=O)NCc1csc(-c2ccccc2)n1 [CBK092334] | 120.417
60 | COc1ccc(NC(=O)Nc2nn(Cc3c(F)cccc3Cl)cc2Br)c(OC)c1 [CBK266834] | 147.549
61 | CN1CCN(C(=O)Nc2cccc(-c3nc(-c4ccc(C#N)cc4)cnc3N)c2)CC1 [CBK116251] | 100
62 | CCc1c(C)nc2ccccc2c1SCCC(=O)N(C)C [CBK149718T] | 127.625
63 | Cc1nc(C(=O)NCC2CN3CCCN2CC3)ccc1C(=O)O (centres unmarked) [CBK304242] | 142.066
64 | CCN(CC)CCN(CCc1ccc(OC)c(OC)c1)C(=O)Nc1ccc(Cl)cc1 [CBK160510] | 93.3495
65 | CCCSc1ncc(Cl)c(C(=O)Nc2ccc(C(=O)OC)cc2)n1 [CBK268824] | 99.3677
66 | Cc1cc(C(=O)N2CCn3cc(C(F)(F)F)nc3C2)on1 [CBK282430] | 84.8845
67 | CCOC(=O)C(C)N1C(=O)S/C(=C/c2cc(Cl)c(OCC(=O)O)c(Br)c2)C1=O (centres unmarked) [CBK265163] | 100
68 | Cc1ncccc1COC(=O)NCCc1ccccn1 [CBK200137] | 167.122
69 | Cc1ccc(OCC(=O)NCCCN(C)C)cc1 [CBK263595] | 93.929
70 | C=CCOc1ccc(CNc2cccc(C(=O)O)c2)cc1OC [CBK074468] | 126.012
71 | O=c1cc(C(F)F)c2cn(C3CCCC3)nc2[nH]1 [CBK288016] | 106.508
72 | O=C(c1n[nH]c2c1CCC2)N1CCC(c2ccccc2)C1 (centres unmarked) [CBK281851] | 108.113
73 | CC1CCCC(C)N1CC(=O)Nc1ccccc1Oc1ccccc1 (centres unmarked) [CBK015824C] | 75.3793
74 | O=C(c1cc(-c2ccncc2)nc2ccc(Cl)cc12)N1CCN(CCc2ccccc2)CC1 [CBK267719] | 122.313
75 | O=C(O)c1ccc(/C=N/Nc2nc(N3CCOCC3)nc(N3CCOCC3)n2)cc1 [CBK262433] | 131.915
76 | O=C(c1ccccc1F)N1C[C@H](c2ccsc2)[C@H]2CN(Cc3ccccc3F)CC[C@H]21 [CBK285656] | 57.4292
77 | c1coc(CNc2nccnc2-c2cccs2)c1 [CBK036618] | 125.591
